Results on 16 targets are retold here after the supplement of paper PMC10849652.

Sequences of proteins named here, by UniProt entry; tags and fusion partners are left off. A change or cut given only in a name is not applied to a line headed by its entry.
UniProt Q9NVU0: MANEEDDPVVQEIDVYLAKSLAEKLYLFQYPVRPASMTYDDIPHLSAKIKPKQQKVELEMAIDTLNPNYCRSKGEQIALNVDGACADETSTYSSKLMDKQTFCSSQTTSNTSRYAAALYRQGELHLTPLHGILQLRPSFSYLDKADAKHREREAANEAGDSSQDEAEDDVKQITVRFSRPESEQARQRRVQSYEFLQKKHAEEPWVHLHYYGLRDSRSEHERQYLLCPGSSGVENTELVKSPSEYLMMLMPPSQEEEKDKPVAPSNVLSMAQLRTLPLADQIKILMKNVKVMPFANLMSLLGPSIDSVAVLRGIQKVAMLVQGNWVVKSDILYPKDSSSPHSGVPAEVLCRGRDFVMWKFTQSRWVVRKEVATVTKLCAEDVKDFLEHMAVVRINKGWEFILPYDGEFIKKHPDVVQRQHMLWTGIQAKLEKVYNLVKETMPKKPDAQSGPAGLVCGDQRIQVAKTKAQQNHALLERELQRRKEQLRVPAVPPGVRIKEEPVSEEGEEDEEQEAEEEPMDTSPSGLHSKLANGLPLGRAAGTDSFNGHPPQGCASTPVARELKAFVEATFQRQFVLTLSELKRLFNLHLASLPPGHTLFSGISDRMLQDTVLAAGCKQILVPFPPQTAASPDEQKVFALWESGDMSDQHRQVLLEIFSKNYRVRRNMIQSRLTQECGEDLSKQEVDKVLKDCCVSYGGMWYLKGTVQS
UniProt O75417: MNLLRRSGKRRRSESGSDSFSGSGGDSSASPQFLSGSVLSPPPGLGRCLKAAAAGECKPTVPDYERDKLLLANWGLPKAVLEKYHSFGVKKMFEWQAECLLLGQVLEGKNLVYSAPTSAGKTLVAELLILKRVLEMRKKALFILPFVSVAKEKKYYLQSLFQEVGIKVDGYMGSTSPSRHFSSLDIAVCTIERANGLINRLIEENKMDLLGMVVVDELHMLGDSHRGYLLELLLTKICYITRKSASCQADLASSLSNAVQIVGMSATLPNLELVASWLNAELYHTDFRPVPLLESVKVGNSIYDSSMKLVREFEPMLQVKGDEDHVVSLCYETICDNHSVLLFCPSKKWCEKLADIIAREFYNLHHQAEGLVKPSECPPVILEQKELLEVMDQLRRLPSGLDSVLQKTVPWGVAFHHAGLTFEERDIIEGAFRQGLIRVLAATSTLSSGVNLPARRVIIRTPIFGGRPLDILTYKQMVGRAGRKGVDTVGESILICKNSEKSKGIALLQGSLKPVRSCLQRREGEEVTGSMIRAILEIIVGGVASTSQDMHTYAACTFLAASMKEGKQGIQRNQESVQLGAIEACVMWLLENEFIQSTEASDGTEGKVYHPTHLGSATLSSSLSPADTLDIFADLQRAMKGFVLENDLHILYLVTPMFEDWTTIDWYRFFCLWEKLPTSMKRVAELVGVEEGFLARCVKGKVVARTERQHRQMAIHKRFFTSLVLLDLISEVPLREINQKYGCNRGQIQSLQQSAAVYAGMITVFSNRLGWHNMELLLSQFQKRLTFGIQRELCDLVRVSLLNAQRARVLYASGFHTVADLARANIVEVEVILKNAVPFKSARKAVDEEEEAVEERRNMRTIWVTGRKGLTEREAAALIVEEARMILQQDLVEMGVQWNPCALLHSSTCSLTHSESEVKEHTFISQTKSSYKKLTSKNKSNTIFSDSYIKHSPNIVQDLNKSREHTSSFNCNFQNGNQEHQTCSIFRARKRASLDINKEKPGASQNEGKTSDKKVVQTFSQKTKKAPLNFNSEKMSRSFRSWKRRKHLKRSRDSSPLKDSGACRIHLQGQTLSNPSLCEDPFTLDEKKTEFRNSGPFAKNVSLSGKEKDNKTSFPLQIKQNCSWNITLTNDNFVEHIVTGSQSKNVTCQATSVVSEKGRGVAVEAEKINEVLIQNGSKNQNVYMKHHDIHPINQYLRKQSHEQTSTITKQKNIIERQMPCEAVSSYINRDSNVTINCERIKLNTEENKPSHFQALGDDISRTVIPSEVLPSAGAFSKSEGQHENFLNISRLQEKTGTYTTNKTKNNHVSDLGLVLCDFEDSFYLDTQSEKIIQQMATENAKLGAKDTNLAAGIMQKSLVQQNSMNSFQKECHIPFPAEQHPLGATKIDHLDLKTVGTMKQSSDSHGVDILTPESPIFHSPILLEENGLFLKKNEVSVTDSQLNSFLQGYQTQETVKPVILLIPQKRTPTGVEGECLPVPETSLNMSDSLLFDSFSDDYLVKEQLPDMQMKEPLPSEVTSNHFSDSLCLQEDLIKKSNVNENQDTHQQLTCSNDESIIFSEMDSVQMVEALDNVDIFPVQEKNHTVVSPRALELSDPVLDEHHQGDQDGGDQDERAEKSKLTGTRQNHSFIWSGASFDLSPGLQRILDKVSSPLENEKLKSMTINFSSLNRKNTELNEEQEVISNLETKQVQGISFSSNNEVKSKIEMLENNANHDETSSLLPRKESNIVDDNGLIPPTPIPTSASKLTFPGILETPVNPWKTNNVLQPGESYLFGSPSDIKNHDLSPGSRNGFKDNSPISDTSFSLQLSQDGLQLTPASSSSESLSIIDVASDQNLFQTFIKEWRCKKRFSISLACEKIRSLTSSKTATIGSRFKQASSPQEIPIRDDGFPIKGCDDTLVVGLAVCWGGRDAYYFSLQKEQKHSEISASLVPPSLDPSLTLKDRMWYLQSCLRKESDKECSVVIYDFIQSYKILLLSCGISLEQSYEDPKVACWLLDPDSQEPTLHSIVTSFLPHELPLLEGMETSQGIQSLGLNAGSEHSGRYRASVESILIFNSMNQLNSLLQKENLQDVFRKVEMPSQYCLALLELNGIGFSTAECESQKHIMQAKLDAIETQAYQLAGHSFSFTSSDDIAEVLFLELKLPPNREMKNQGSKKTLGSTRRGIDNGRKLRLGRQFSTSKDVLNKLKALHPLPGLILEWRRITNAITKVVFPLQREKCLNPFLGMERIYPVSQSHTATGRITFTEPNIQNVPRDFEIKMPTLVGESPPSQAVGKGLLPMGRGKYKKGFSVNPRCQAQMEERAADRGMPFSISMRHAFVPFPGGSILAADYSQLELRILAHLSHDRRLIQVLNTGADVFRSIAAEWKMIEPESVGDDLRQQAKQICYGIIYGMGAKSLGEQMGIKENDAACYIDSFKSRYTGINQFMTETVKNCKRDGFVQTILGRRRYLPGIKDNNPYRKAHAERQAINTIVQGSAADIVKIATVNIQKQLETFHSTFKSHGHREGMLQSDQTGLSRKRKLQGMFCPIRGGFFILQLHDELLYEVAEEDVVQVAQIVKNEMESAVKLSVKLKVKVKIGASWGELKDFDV
UniProt Q02809: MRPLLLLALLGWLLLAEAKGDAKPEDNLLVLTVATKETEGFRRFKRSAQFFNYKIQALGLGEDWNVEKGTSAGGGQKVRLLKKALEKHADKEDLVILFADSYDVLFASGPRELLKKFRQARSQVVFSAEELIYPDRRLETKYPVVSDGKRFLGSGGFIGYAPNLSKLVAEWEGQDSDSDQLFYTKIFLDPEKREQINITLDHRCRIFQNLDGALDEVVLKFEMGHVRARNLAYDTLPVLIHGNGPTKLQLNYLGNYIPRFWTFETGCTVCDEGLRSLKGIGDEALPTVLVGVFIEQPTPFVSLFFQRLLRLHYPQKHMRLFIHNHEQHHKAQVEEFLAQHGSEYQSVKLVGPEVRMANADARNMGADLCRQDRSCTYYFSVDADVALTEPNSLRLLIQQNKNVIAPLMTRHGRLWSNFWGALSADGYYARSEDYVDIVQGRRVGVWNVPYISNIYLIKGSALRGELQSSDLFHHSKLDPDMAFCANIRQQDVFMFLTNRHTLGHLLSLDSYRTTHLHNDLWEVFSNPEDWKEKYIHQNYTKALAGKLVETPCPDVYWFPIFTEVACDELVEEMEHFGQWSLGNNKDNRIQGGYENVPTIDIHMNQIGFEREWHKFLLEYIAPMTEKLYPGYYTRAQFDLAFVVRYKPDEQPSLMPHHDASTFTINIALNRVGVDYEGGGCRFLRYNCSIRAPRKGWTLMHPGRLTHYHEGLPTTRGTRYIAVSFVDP
UniProt Q8NAT1: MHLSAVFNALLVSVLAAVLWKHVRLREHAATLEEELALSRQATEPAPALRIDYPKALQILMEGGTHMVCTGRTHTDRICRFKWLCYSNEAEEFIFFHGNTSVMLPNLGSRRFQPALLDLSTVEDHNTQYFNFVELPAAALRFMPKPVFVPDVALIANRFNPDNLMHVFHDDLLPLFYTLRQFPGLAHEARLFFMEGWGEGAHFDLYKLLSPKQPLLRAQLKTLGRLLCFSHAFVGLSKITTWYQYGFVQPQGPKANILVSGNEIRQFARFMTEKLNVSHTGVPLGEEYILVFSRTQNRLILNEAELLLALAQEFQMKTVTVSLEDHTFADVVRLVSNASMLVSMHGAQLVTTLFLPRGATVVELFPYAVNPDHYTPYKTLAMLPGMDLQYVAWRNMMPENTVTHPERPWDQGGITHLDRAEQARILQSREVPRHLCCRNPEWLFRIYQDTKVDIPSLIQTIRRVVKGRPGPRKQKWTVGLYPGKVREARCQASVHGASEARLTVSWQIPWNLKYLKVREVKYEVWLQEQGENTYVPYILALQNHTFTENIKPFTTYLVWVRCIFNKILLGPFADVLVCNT
UniProt Q9BT43: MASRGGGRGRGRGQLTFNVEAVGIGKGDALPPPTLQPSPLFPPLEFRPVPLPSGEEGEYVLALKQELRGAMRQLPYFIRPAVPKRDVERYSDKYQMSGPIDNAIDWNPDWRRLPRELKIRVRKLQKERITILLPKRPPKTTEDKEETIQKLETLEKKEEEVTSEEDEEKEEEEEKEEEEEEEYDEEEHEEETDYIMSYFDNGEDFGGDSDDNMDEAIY
UniProt Q8NBT0: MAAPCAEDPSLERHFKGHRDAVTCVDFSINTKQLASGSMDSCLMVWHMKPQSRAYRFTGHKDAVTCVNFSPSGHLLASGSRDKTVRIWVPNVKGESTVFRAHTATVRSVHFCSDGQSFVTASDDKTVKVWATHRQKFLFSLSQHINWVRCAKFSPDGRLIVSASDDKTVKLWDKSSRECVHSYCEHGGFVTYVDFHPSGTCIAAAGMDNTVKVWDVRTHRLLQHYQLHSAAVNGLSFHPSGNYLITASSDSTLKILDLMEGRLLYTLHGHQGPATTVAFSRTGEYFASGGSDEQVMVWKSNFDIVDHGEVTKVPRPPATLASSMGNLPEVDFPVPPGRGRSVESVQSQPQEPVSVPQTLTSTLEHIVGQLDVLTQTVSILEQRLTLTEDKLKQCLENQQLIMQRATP
UniProt Q9H237: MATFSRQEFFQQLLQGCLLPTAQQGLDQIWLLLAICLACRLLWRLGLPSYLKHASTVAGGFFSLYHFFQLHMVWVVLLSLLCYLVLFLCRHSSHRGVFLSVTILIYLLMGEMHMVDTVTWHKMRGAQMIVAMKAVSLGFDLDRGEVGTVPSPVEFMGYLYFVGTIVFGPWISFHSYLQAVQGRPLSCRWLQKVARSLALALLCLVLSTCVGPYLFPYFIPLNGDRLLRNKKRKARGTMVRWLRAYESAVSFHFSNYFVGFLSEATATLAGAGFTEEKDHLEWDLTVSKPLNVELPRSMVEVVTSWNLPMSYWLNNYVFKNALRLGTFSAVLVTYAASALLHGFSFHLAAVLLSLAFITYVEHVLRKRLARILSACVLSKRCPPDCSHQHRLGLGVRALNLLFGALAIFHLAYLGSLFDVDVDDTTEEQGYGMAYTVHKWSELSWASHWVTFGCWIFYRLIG
UniProt P54278: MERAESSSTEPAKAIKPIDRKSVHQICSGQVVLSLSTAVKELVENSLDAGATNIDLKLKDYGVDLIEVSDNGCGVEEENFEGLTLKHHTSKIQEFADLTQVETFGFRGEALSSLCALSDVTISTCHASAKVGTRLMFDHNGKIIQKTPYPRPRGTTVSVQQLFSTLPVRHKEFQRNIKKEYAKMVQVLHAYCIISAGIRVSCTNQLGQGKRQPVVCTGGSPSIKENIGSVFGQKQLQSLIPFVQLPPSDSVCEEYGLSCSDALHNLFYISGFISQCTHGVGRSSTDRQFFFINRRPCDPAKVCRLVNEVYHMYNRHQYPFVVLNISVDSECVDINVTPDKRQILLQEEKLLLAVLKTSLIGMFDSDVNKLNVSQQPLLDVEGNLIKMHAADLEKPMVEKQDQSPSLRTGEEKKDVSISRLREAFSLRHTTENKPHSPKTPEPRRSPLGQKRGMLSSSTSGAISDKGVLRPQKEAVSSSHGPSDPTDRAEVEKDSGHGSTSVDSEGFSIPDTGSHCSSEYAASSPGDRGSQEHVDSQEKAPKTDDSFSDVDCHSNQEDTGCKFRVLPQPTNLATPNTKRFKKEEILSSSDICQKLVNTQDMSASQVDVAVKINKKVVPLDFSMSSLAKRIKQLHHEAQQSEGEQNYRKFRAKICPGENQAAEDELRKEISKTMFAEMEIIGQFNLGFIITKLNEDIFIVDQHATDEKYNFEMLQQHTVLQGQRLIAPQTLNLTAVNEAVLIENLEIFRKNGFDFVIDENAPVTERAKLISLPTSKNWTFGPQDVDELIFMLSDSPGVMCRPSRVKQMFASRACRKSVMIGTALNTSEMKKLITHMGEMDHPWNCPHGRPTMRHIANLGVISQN

Common to all, as to test: log2 fold change, soluble protein after heating vs DMSO (PISA); higher = thermal stabilisation; K562 cells, 10 uM, 30 min; active = over 0.2 and 3.5 SD of the protein, either way, in both replicates (recomputed)
Compound in assay [1]: Cc1ccc(NC(=O)c2ccc(CN3CC[C@H](N(C)C)C3)c(C(F)(F)F)c2)cc1Nc1nccc(-c2cncnc2)n1 [bafetinib]
Summed up:
(§1)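 Quantification of soluble protein used TMTpro 16plex LC-MS/MS, with channel sums equalised. Samples were the supernatant after 21,000xg for 90 min of pooled aliquots from K562 cells (2×10^6 cells/mL) treated with 10 μM compound for 30 min, heated for 3 min over 48°C-58°C, and extracted in PBS with 0.5% NP-40 at 4°C. Values, from duplicates, describe thermal stability against control samples on a log2 fold-change scale.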

Compound in assay [2]: Cc1cccc(CC(=O)N2CCc3c2ccc(-c2cn(C)c4ncnc(N)c24)c3F)n1
Summed up:
as §1

Compound in assay [3]: Cc1cn(-c2cc(NC(=O)c3ccc(C)c(Nc4nccc(-c5cccnc5)n4)c3)cc(C(F)(F)F)c2)cn1 [nilotinib]
The essentials:
as §1

Compound in assay [4]: Cc1nc(Nc2n[nH]c3c2CN(C(=O)N[C@H](CN(C)C)c2ccccc2)C3(C)C)c2sccc2n1
The essentials:
as §1

Compound in assay [5]: Cc1nc(Nc2ncc(C(=O)Nc3c(C)cccc3Cl)s2)cc(N2CCN(CCO)CC2)n1 [dasatinib]
Summed up:
as §1

Compound in assay [6]: Cc1ncc(-c2ccnc(Nc3ccc(S(C)(=O)=O)cc3)n2)n1C(C)C
The essentials: as §1

Compound in assay [7]: Cn1cc(-c2ccc3c(c2)CCN3C(=O)Cc2cccc(C(F)(F)F)c2)c2c(N)ncnc21
The essentials: as §1

Compound in assay [8]: Cn1cc(-c2ccc3nnc(C(F)(F)c4ccc5ncccc5c4)n3n2)cn1
Summed up:
as §1

Compound in assay [9]: Cn1cncc1[C@@](N)(c1ccc(Cl)cc1)c1ccc2c(c1)c(-c1cccc(Cl)c1)cc(=O)n2C [tipifarnib]
Summed up: as §1

Compound in assay [10]: FC(F)(F)c1ccc(/C=C/c2nc(COc3ccc(CCCCn4ccnn4)cc3)co2)cc1 [mubritinib]
Summed up: as §1

Some of the results follow.

As to POLR3E (UniProt Q9NVU0), the log2 fold change in assay [1] was inactive: 0.059; in assay [2] it was inactive: 0.125; in assay [3], inactive: -0.234; in assay [4], inactive: -0.189; in assay [5], inactive: -0.3; in assay [6], inactive: 0.053. The log2 fold change was inactive: -0.063 in assay [7], inactive: 0.041 in assay [8], inactive: -0.149 in assay [9] and inactive: -0.016 in assay [10].
Consider PLEKHO2 (UniProt Q8TD55), for which the log2 fold change in [1] was inactive: -0.082; in assay [2], inactive: 0.008; in assay [3] it was inactive: 0.004; in [4] it was inactive: -0.026; in [6], inactive: -0.141; in assay [7], inactive: -0.189. In addition, the log2 fold change in assay [8] was inactive: -0.001; in [9] it was inactive: 0.199; in assay [10] it was inactive: 0.017.
For POLQ (UniProt O75417), the log2 fold change in [1] is inactive: -0.03; in assay [2], inactive: -0.005; in [3] it was inactive: -0.145; in assay [4] it was inactive: -0.108; in assay [6] it was inactive: -0.054; in assay [8], inactive: 0.025. Also, the log2 fold change in [10] is inactive: 0.067.
In the case of POLR2J (UniProt P52435), the log2 fold change in [1] is inactive: -0.009; in assay [2], inactive: -0.129; in [3], inactive: 0.081; in assay [4], inactive: 0.008; in assay [5], inactive: -0.068; in assay [6], inactive: 0.145. Besides, the log2 fold change was inactive: 0.071 in assay [7] and inactive: 0.007 in assay [10].
Take POLA1 (UniProt P09884): the log2 fold change in assay [1] is inactive: 0.021; in [2] it was inactive: 0.021; in assay [3] it was inactive: -0.043; in assay [4], inactive: -0.033; in assay [5] it was inactive: -0.173; in [6] it was inactive: 0.01. In addition, the log2 fold change in assay [7] was inactive: 0.019; in assay [8], inactive: 0.014; in assay [9], inactive: -0.091; in assay [10] it was inactive: 0.064.
Regarding PLOD1 isoform 2 (UniProt Q02809), the log2 fold change in [1] is inactive: 0.052; in [2], inactive: 0.033; in assay [3] it was inactive: 0.015; in [4], inactive: 0.072; in assay [5], inactive: 0.05; in assay [6], inactive: -0.044. Moreover, the log2 fold change in assay [7] was inactive: -0.113; in assay [8] it was inactive: -0.03; in assay [9] it was inactive: 0.121; in assay [10], inactive: -0.11.
In the case of POLR2C (UniProt P19387), the log2 fold change is inactive: 0.012 in assay [1]; inactive: -0.042 in assay [3]; inactive: 0.073 in assay [4]; inactive: -0.031 in assay [5]; active: 0.3 in assay [6]; inactive: 0.003 in assay [7]. Besides, the results for the log2 fold change in assay [8], in [9] and in assay [10] were inactive: -0.06, inactive: -0.081 and inactive: -0.097, respectively.
Regarding POMGNT2 (UniProt Q8NAT1), the log2 fold change was inactive: 0.254 in [1]; inactive: -0.052 in [2]; inactive: 0.071 in assay [5]; inactive: 0.158 in assay [7]; inactive: 0.165 in assay [9]; inactive: 0.012 in assay [10].
As to PLOD2 isoform 2 (UniProt O00469), the log2 fold change in assay [5] was inactive: 0.088; in assay [9], inactive: -0.243; in assay [10], inactive: 0.02.
As for POLR3GL (UniProt Q9BT43), the log2 fold change in [1] is inactive: -0.064; in [10], inactive: 0.133.
As for PPFIA3 (UniProt O75145), in assay [7], the log2 fold change is inactive: 0.045.
Regarding POC1A (UniProt Q8NBT0), the log2 fold change in [1] is inactive: 0.121; in assay [5], inactive: 0.055; in assay [7], inactive: -0.117; in assay [10] it was inactive: 0.124.
For PORCN (UniProt Q9H237), the log2 fold change in [7] was inactive: -0.099; in [8] it was inactive: 0.347.
For the target POM121C (UniProt A8CG34), the log2 fold change was inactive: 0.015 in assay [1]; inactive: 0.191 in assay [3]; inactive: 0.092 in [4]; inactive: -0.162 in assay [6]; inactive: -0.066 in assay [8]; inactive: -0.129 in assay [10].
With PNKP (UniProt Q96T60), the log2 fold change is inactive: -0.517 in assay [2]; inactive: -0.219 in assay [5]; inactive: -0.083 in assay [7]; inactive: 0.105 in assay [8]; inactive: 0.066 in [9].
As for PMS2 (UniProt P54278), the log2 fold change is inactive: 0.044 in assay [5], inactive: 0.167 in [7] and inactive: -0.111 in assay [8].
